“Also recorded” adds a separate entry of the source.

The data set in a line: Body temperature measurement (hypothermic action of acetaminophen). The settings on record: combination of low dose with acetaminophen, FIG. 10C; acetate.

Take `N=C(N)N/N=C/c1c(Cl)cccc1Cl` [BC1-45-1, guanabenz, acetate]: the “effect on hypothermic action of acetaminophen (body temperature)” value is on record as “does not have any effect on the hypothermic effect of acetaminophen; also recorded: did not have any effect on the hypothermic action of acetaminophen”.

Values taken from US12006294B2, “Therapeutic compounds” (REGENTS OF THE UNIVERSITY OF MINNESOTA, priority 2017, dated 2024).
